Test results taken from publication PMC5342110.
Results are given in words; binding and its absence hold for the method and conditions named. In cells and extracts the contact can be indirect. Some results given as binding are weak or reduced against the parent protein; the word gives no strength.

Protein sequences, listed by entry. Tags and fused reporters are not part of them. Residues count along the entry.
UniProt O60674: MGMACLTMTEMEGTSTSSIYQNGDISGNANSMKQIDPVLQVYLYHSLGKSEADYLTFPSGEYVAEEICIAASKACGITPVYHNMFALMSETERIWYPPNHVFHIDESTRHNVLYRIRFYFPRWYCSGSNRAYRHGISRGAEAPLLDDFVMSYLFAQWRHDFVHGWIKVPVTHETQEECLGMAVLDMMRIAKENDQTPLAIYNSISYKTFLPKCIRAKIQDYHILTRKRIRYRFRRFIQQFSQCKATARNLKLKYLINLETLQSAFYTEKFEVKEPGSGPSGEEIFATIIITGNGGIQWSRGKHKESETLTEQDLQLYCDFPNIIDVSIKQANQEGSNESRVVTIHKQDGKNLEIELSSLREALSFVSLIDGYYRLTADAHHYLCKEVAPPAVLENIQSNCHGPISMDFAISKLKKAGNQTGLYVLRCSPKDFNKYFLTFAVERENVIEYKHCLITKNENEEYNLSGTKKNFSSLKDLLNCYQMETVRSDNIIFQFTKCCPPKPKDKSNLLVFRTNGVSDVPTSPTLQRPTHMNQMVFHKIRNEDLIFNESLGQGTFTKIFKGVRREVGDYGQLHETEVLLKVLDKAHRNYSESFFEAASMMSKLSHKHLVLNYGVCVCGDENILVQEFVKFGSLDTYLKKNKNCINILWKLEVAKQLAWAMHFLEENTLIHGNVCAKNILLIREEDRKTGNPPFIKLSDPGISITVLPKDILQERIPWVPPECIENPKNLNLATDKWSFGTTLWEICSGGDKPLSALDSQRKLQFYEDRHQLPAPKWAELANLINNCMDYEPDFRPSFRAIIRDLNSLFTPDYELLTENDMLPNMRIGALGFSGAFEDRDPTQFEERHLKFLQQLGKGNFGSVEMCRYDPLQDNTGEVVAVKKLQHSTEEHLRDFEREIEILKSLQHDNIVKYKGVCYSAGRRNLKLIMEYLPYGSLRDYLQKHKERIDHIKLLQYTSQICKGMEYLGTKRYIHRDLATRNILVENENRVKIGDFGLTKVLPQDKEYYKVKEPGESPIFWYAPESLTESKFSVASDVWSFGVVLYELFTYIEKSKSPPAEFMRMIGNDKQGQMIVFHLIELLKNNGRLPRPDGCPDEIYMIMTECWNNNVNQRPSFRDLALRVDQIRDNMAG
UniProt P22301, residues 19-178: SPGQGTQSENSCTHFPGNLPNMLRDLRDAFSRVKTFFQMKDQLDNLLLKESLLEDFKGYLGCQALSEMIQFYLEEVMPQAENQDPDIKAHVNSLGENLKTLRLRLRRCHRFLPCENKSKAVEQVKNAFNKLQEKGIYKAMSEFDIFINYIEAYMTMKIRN

Biological target: GST-JAK2 (full-length) (UniProt O60674)
Experiment: pull-down; GST-JAK2 (full-length) or GST-Tag mixed with cell lysates expressing His-IL-10 for 1 h at 4 C; 50 mM Tris-HCl pH 7.5, 0.05% Triton X-100, 300 mM NaCl; immunoblot for His-IL-10; only the target purified

binding: binds
Substance: His-IL-10 (from UniProt P22301 19-178)
